Experimental findings from patent publication US7935848B2, “Butone derivatives useful as cooling agents” (Givaudan S.A., priority 2007, dated 2011) are described below.

The nature of this data set: Cooling intensity: panelists taste aqueous solutions, compared with menthol at 2 ppm. The note with it: aqueous solution at the stated concentration. Type of data set: in vivo, human.

On to `CC(C)[C@@H]1CC[C@@H](C)C[C@H]1O` [l-Menthol, reference compound], for which the Odor result is on record as “Minty”.

For the compound `CCCC(=O)[C@@H]1C[C@H](C)CC[C@H]1C(C)C` [Example 1, 1-((1R,2S,5R)-2-isopropyl-5-methylcyclohexyl)butan-1-one], the Odor result is recorded as “None”.

Turning to `CC(C)[C@@H]1CC[C@@H](C)C[C@H]1C(=O)CCCc1ccccn1` [Example 3, 1-((1R,2S,5R)-2-isopropyl-5-methylcyclohexyl)-4-(pyridin-2-yl)butan-1-one], the Odor result was “None”.

As to `CCNC(=O)C1CC(C)CCC1C(C)C` (stereo not drawn) [WS-3, N-ethyl p-menthanecarboxamide, reference compound], the Odor result was “None”.

In the case of `CC(C)C(C)(C(=O)CCCc1ccccc1)C(C)C` [Example 4, 5-isopropyl-5,6-dimethyl-1-phenylheptan-4-one], the Odor entry is recorded as “None”.

With `CC(C)[C@@H]1CC[C@@H](C)C[C@H]1C(=O)CCCc1ccccc1` [Example 2, 1-((1R,2S,5R)-2-isopropyl-5-methylcyclohexyl)-4-phenylbutan-1-one], the Odor entry is “None”.
